Experiments:
Set-up in all cases: key: The presence of phosphopeptides in previously analyzed samples including leukemia, colorectal cancer, melanoma, ovarian cancer, breast cancer, and esophageal cancer is indicated by ✓
[1] = test system: ovarian cancer; test: Presence of the phosphopeptide in previously analyzed ovarian cancer samples
[2] = test system: melanoma; test: Presence of the phosphopeptide in previously analyzed melanoma samples
[3] = test system: esophageal cancer; test: Presence of the phosphopeptide in previously analyzed esophageal cancer samples
[4] = test system: leukemia; test: Presence of the phosphopeptide in previously analyzed leukemia samples
[5] = test system: colorectal cancer; test: Presence of the phosphopeptide in previously analyzed colorectal cancer samples
[6] = test system: breast cancer; test: Presence of the phosphopeptide in previously analyzed breast cancer samples

54 (RTFSPTYGL; (4)...(4) The amino acid at this position is optionally phosphorylated; listed as Homo sapiens) [compound 54]
✓: Ovarian [1] | Melanoma [2] | Esophageal [3]

180 (RPRSPRENSI; (4)...(4) The amino acid at this position is optionally phosphorylated; listed as Homo sapiens) [compound 180]
✓: Leukemia [4] | Melanoma [2] | Colorectal [5] | Breast [6]

134 (RPDSRLGKTEL; (4)...(4) The amino acid at this position is optionally phosphorylated; listed as Homo sapiens) [compound 134]
✓: Leukemia [4] | Melanoma [2] | Colorectal [5] | Breast [6]

129 (RPASPQRAQL; (4)...(4) The amino acid at this position is optionally phosphorylated; listed as Homo sapiens) [compound 129]
✓: Leukemia [4] | Melanoma [2] | Colorectal [5] | Breast [6]

49 (RQISQDVKL; (4)...(4) The amino acid at this position is optionally phosphorylated; listed as Homo sapiens) [compound 49]
✓: Ovarian [1] | Melanoma [2] | Colorectal [5] | Esophageal [3]

120 (RARGISPIVF; (6)...(6) The amino acid at this position is optionally phosphorylated; listed as Homo sapiens) [compound 120]
✓: Leukemia [4] | Melanoma [2] | Colorectal [5] | Breast [6]

103 (KPRSPPRAL; (4)...(4) The amino acid at this position is optionally phosphorylated; listed as Homo sapiens) [compound 103]
✓: Leukemia [4] | Melanoma [2] | Colorectal [5] | Breast [6]

104 (KPRSPPRALVL; (4)...(4) The amino acid at this position is optionally phosphorylated; listed as Homo sapiens) [compound 104]
✓: Melanoma [2] | Breast [6]

217 (TPRSPPLGLI; (4)...(4) The amino acid at this position is optionally phosphorylated; listed as Homo sapiens) [compound 217]
✓: Leukemia [4] | Melanoma [2] | Colorectal [5] | Breast [6]

79 (APRKGSFSAL; (6)...(6) The amino acid at this position is optionally phosphorylated; listed as Homo sapiens) [compound 79]
✓: Melanoma [2] | Colorectal [5] | Breast [6]

112 (LPIFSRLSI; (8)...(8) The amino acid at this position is optionally phosphorylated; listed as Homo sapiens) [compound 112]
✓: Melanoma [2] | Colorectal [5] | Breast [6]

199 (RPWSPAVSA; (4)...(4) The amino acid at this position is optionally phosphorylated; listed as Homo sapiens) [compound 199]
✓: Leukemia [4] | Colorectal [5] | Breast [6]

90 (GPRPGSPSAL; (6)...(6) The amino acid at this position is optionally phosphorylated; listed as Homo sapiens) [compound 90]
✓: Melanoma [2] | Breast [6]

209 (SPRERSPAL; (6)...(6) The amino acid at this position is optionally phosphorylated; listed as Homo sapiens) [compound 209]
✓: Melanoma [2] | Colorectal [5] | Breast [6]

139 (RPISPGLSY; (4)...(4) The amino acid at this position is optionally phosphorylated; listed as Homo sapiens) [compound 139]
✓: Melanoma [2] | Colorectal [5] | Breast [6] | Esophageal [3]

189 (RPSSLPDL; (4)...(4) The amino acid at this position is optionally phosphorylated; listed as Homo sapiens) [compound 189]
✓: Melanoma [2] | Breast [6]

150 (RPNSPSPTAL; (4)...(4) The amino acid at this position is optionally phosphorylated; listed as Homo sapiens) [compound 150]
✓: Leukemia [4] | Melanoma [2] | Breast [6]

194 (RPVSPGKDI; (4)...(4) The amino acid at this position is optionally phosphorylated; listed as Homo sapiens) [compound 194]
✓: Leukemia [4] | Melanoma [2] | Breast [6]

122 (RLLSPQQPAL; (4)...(4) The amino acid at this position is optionally phosphorylated; listed as Homo sapiens) [compound 122]
✓: Breast [6]

81 (APRRYSSSL; (6)...(6) The amino acid at this position is optionally phosphorylated; listed as Homo sapiens) [compound 81]
✓: Leukemia [4] | Melanoma [2] | Colorectal [5] | Esophageal [3]

211 (SPRSPGRSL; (4) The amino acid at this position is optionally phosphorylated; listed as Homo sapiens) [compound 211]
✓: Leukemia [4] | Melanoma [2] | Breast [6]

16 (KAFSPVRSV; (4)...(4) The amino acid at this position is optionally phosphorylated; listed as Homo sapiens) [compound 16]
✓: Ovarian [1] | Colorectal [5] | Esophageal [3]

126 (RPASPAAKL; (4)...(4) The amino acid at this position is optionally phosphorylated; listed as Homo sapiens) [compound 126]
✓: Leukemia [4] | Melanoma [2] | Colorectal [5] | Breast [6]

249 (RRFSGTAVY; (4)...(4) The amino acid at this position is optionally phosphorylated; listed as Homo sapiens) [compound 249]
✓: Leukemia [4] | Colorectal [5] | Esophageal [3]

428 (RTHSLLLLL; (4)...(4) The amino acid at this position is optionally phosphorylated; listed as Homo sapiens) [compound 428]
✓: Leukemia [4] | Ovarian [1] | Colorectal [5] | Esophageal [3]

262 (RRKSQVAEL; (4)...(4) The amino acid at this position is optionally phosphorylated; listed as Homo sapiens) [compound 262]
✓: Leukemia [4] | Melanoma [2] | Colorectal [5] | Esophageal [3]

114 (LPRGSSPSVL; (5)...(5) The amino acid at this position is optionally phosphorylated; listed as Homo sapiens) [compound 114]
✓: Leukemia [4] | Melanoma [2] | Colorectal [5] | Breast [6]

385 (RSDSYVEL; (4)...(4) The amino acid at this position is optionally phosphorylated; listed as Homo sapiens) [compound 385]
✓: Leukemia [4] | Colorectal [5] | Esophageal [3]

204 (SPASPKISL; (4)...(4) The amino acid at this position is optionally phosphorylated; listed as Homo sapiens) [compound 204]
✓: Leukemia [4] | Melanoma [2] | Breast [6]

192 (RPTSRLNRL; (4)...(4) The amino acid at this position is optionally phosphorylated; listed as Homo sapiens) [compound 192]
✓: Leukemia [4] | Melanoma [2] | Colorectal [5] | Breast [6]

252 (RRFSPPRRM; (4)...(4) The amino acid at this position is optionally phosphorylated; listed as Homo sapiens) [compound 252]
✓: Leukemia [4] | Colorectal [5] | Esophageal [3]

172 (RPRSLSSPTVTL; (6)...(6) The amino acid at this position is optionally phosphorylated; listed as Homo sapiens) [compound 172]
✓: Melanoma [2] | Breast [6]

152 (RPQRATSNVF; (6)...(6) The amino acid at this position is optionally phosphorylated; listed as Homo sapiens) [compound 152]
✓: Leukemia [4] | Melanoma [2] | Colorectal [5] | Breast [6]

221 (VPTSPKSSL; (4)...(4) The amino acid at this position is optionally phosphorylated; listed as Homo sapiens) [compound 221]
✓: Breast [6]

From patent US20190374627A1, “TARGET PEPTIDES FOR CANCER THERAPY AND DIAGNOSTICS” (priority 2016, published 2019)
